These are yes or no findings as the source states them, for the method shown. In cells and extracts the contact can be indirect. Here binding means that the protein was enriched with, or labelled near, the bait; the list need not be complete. Where a sequence is shown, tags or fusion partners need not be part of it.

The chains behind the UniProt entries cited, without tags or fusion partners.
UniProt O95819: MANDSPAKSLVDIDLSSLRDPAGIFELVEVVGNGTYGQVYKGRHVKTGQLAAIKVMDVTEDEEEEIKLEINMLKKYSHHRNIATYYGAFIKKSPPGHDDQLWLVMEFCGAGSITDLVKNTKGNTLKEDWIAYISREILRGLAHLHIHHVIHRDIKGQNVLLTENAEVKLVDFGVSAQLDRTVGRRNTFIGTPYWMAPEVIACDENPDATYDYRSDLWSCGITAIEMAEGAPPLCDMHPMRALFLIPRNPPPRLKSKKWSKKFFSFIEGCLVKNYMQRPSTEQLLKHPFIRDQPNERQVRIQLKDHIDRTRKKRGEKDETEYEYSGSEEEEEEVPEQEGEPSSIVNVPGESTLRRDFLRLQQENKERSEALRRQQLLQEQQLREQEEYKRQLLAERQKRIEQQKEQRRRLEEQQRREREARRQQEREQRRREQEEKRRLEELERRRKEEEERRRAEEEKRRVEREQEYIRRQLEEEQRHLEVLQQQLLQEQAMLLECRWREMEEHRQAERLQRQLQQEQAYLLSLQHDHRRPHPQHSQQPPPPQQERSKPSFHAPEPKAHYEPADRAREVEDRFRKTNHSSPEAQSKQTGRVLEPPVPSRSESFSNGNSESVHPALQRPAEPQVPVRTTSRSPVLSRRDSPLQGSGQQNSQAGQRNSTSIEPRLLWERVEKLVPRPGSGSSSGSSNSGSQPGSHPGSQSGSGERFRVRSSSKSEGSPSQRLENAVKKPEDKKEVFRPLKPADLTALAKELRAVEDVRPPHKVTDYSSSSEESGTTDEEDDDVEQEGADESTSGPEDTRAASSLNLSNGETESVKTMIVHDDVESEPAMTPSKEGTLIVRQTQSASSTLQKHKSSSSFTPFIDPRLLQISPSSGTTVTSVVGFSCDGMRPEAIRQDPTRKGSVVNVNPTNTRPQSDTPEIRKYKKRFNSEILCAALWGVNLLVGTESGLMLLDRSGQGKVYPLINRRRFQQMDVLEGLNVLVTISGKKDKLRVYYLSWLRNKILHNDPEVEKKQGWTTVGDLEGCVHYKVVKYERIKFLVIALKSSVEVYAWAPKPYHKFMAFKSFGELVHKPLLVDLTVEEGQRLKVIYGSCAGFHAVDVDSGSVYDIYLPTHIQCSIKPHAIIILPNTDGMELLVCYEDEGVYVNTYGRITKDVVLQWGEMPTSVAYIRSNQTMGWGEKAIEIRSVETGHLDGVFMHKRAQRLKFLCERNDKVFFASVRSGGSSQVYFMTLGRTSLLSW

For one substance, binding results are on record in article PMC11844294.

The assay concerns the target T1, Flag-HMMR (UniProt O75330).
T1 sequence: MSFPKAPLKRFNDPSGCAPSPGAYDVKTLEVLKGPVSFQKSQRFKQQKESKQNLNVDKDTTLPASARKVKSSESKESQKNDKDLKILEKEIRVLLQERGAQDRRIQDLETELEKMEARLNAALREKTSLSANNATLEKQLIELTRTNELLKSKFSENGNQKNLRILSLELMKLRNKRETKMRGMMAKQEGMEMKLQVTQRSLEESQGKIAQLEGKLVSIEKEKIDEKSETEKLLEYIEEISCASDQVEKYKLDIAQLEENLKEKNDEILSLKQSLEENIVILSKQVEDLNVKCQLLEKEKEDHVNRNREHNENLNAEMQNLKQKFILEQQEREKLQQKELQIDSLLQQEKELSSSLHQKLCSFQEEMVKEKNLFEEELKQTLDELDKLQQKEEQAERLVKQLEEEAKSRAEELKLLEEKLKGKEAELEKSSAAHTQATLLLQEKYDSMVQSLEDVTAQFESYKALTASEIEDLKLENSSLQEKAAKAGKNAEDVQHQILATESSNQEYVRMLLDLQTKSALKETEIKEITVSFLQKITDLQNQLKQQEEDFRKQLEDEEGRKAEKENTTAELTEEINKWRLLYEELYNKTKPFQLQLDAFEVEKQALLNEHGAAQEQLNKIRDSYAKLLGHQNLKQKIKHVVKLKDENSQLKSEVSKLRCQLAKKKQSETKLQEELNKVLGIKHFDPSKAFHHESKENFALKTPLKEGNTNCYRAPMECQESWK
Put plainly: affinity purification with mass spectrometry; lysates of H1299 Flag-HMMR-overexpressing stable cells and control cells, anti-Flag magnetic beads, label-free proteomics.

For the substance “Mitogen-activated protein kinase kinase kinase kinase 4 (MAP4K4) (from UniProt O95819 1-1239)”, the binding result is on record as “binds”.
